Consider 42 sequences from publication PMC7819943, “Rice protein-binding microarrays: a tool to detect cis-acting elements near promoter regions in rice”.

The chains behind the UniProt entries cited, without tags or fusion partners.
UniProt Q0JBA9, entry or part of it: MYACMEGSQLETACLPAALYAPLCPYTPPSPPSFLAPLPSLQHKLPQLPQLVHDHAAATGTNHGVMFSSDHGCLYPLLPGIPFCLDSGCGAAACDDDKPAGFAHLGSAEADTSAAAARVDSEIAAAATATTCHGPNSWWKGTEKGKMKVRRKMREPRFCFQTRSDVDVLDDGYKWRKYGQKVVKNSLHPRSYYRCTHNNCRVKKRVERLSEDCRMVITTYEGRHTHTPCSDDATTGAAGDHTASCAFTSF

The list shows a part of the results.

The assay deals with OsWRKY34 (Oryza sativa, UniProt Q0JBA9 1-250). In words: protein-binding microarray (RPBM); PBS, 2% BSA, 51.3 ng/ul salmon testes DNA, 50 uM zinc acetate, 200 nM TF, 25 C, 1 h; high values mean tight binding. The settings on record: protein: recombinant; tags: N-terminal polyhistidine and DsRed monomer fusion (pET32a); label: CyDye5-dUTP incorporated in the synthesized complementary strand; 3' TTTTT single-stranded linker to array surface; dsDNA, one strand shown. The method, boiled down:
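An Axon 4000B scanner gave the binding signal as per-feature fluorescence intensity in arbitrary units. This followed washing of a custom Agilent array that had been incubated for 1 h at 25 °C with 200 nM protein in PBS, 2% BSA, salmon testes DNA and 50 µM zinc acetate. The proteins were transcription factors fused at the N-terminus to polyhistidine and DsRed, expressed in E. coli BL21-CodonPlus and purified on Ni–NTA.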
On to “GCCTTTTTAAATTTTTTTATCACATCAAAACTTTTTTATACGGAGTCACCTAGTGCAG”, for which the binding signal is 8370 fluorescence intensity (a.u.).
The value for “CATATGTGCCGTTCCCCGTGTATTTGGCCCAATCCCTCCCCGGAGTCACCTAGTGCAG” was 8970 fluorescence intensity (a.u.); that for “TTTCTCACCTACTACTTTCGCTGGCCGGTTATACGAAACACGGAGTCACCTAGTGCAG” was 8320 fluorescence intensity (a.u.); that for “TTTTTTTTTTCCTGTCTTCTTCCTTCTTTCTCCCGTCTCTCGGAGTCACCTAGTGCAG” was 9230 fluorescence intensity (a.u.).
Under “ACTCCAGTCGCCGGCTCGCCGCACACCATCGCCCATCAGACGGAGTCACCTAGTGCAG” stands 9820 fluorescence intensity (a.u.).
As to “ATGGGGTATTTAGGATGGGCAATATTTTGGTAGTGAGGAGCGGAGTCACCTAGTGCAG”, the binding signal is 9430 fluorescence intensity (a.u.).
As to “CCCCACCGTCTCATCCCAGCTCAGCTCAGCTCTGCCTCCGCGGAGTCACCTAGTGCAG”, the binding signal was 9660 fluorescence intensity (a.u.).
Consider “CTTTTCTCTCTCCAGATATCTCTCTCATACTATTTAATAACGGAGTCACCTAGTGCAG”, for which the binding signal is 8070 fluorescence intensity (a.u.).
Turning to “CGTTCCCGGCCTCGAGCTGCTCTCCCGTCTTTACAATCCACGGAGTCACCTAGTGCAG”, the binding signal was 8510 fluorescence intensity (a.u.).
Under “TTCCTTTTTTCCCGCCCGTTCCTTTTTTGTTTGTTATGTTCGGAGTCACCTAGTGCAG” stands 15700 fluorescence intensity (a.u.); under “GGAGGAGAGCTTGGTGGTGCGCTGATCGGCGGATGCGGGGCGGAGTCACCTAGTGCAG”, 8490 fluorescence intensity (a.u.); under “TAACTGACATGTGGGCCCCATTATTTTTAGATTTTTTTTTCGGAGTCACCTAGTGCAG”, 9130 fluorescence intensity (a.u.).
Regarding “CTCTATACCCCGCCAGATCCACTCCACGGCCCCACCCCAACGGAGTCACCTAGTGCAG”, the binding signal was 9080 fluorescence intensity (a.u.).
Under “TTTGCTCATCTTACACCAGGCGAATTTCCACAGCTATTTGCGGAGTCACCTAGTGCAG” stands 8150 fluorescence intensity (a.u.); under “ATTGTTAGGTCGTTGGTTCATAAAGGTTTTTGATCTGTTACGGAGTCACCTAGTGCAG”, 8300 fluorescence intensity (a.u.).
The value for “TCCTCGCCGTCCAACTCGCCCAATAAACCGGTCTATCACCCGGAGTCACCTAGTGCAG” was 8690 fluorescence intensity (a.u.); that for “ATACGCGGACATATTTACCAACCTACACCTAGCACCACTCCGGAGTCACCTAGTGCAG” was 9380 fluorescence intensity (a.u.).
In the case of “TGCTGTCGTATACTAGAAGCTGATGCTTTTCTTGCTTAGTCGGAGTCACCTAGTGCAG”, the binding signal was 8940 fluorescence intensity (a.u.).
Consider “CACTGAAAATTAATCTCGTTGTCTGTCTTCAACAAATTAACGGAGTCACCTAGTGCAG”, for which the binding signal is 8030 fluorescence intensity (a.u.).
Regarding “GGATACGGCACCTTTGCGAGCTGCGTCGACCGCTCCGCCGCGGAGTCACCTAGTGCAG”, the binding signal was 9650 fluorescence intensity (a.u.).
With “GTCTCGTATTCGCTCCGTTTCTGTATTCGATAATATTCGACGGAGTCACCTAGTGCAG”, the binding signal is 10100 fluorescence intensity (a.u.).
For “GTGTTTGTTTTCTTTGTATATCTGTTCAAATTTTGTGAACCGGAGTCACCTAGTGCAG”, the binding signal was 14300 fluorescence intensity (a.u.).
The value for “ACTACTAGTAGTCAGTCTGGCAAGTCTATATTATCATCTTCGGAGTCACCTAGTGCAG” was 9670 fluorescence intensity (a.u.).
“CCACCATCCCAGTTTCACTTGTCTGATCTAATCTAAACGGCGGAGTCACCTAGTGCAG”: the binding signal is 8120 fluorescence intensity (a.u.).
The value for “GTTTCAACATGTTAATTTATTAGATTATCTGATTTTTATACGGAGTCACCTAGTGCAG” was 8660 fluorescence intensity (a.u.); that for “GTAAGGTCGTAGCTCAATTCACAATCCATGTTTTCTTCTCCGGAGTCACCTAGTGCAG” was 8890 fluorescence intensity (a.u.); that for “CCTCGTTTTCCGCGCGCATGCTTTTCAAACTGCTAACGGTCGGAGTCACCTAGTGCAG” was 10100 fluorescence intensity (a.u.).
Turning to “TGCCCATCTCCTCTCGCTACCCTCATCCGCGCCGCGCTCTCGGAGTCACCTAGTGCAG”, the binding signal is 9090 fluorescence intensity (a.u.).
The value for “TGCTTAGTTAGATCTTGTGTTTGGAGCGCCATTTTGTTTACGGAGTCACCTAGTGCAG” was 8580 fluorescence intensity (a.u.).
Turning to “TACTCCTATATATATATGTACCCATTTGAACTAGATTTCTCGGAGTCACCTAGTGCAG”, the binding signal is 9300 fluorescence intensity (a.u.).
Under “ATGCTCAATTCTAAACATTCCTGTAGATCCTTGAGTGATTCGGAGTCACCTAGTGCAG” stands 9080 fluorescence intensity (a.u.); under “GCTGGCTGGCGCCCGTGGTTTTTTCTCTCCTGTTTTGGGACGGAGTCACCTAGTGCAG”, 8780 fluorescence intensity (a.u.).
Under “ATCGCTCTCACGCGCTGCCGCCCCTCGCCAACCACGACCTCGGAGTCACCTAGTGCAG” stands 8640 fluorescence intensity (a.u.).
Under “CACAGCTGTTGTCGCGTCGACGCGCCGTACCTATCGAGACCGGAGTCACCTAGTGCAG” stands 8550 fluorescence intensity (a.u.).
On to “TGCATAATGCATGCGCGCGGTACTATTTATTCAACATTTCCGGAGTCACCTAGTGCAG”, for which the binding signal was 10700 fluorescence intensity (a.u.).
On to “CCCCGGACTCCGTTCGCGACCTCGCCTCCTCCCTCCTCACCGGAGTCACCTAGTGCAG”, for which the binding signal is 8050 fluorescence intensity (a.u.).
Consider “TGGGGAGGAGGGGTGGAACGGGCGTGGAGGGACCTAATTGCGGAGTCACCTAGTGCAG”, for which the binding signal is 8950 fluorescence intensity (a.u.).
Turning to “CACTGCTCTTCTCTTTCTTCCTTTCTCTTGAAATATATAGCGGAGTCACCTAGTGCAG”, the binding signal is 9970 fluorescence intensity (a.u.).
Under “ACGGCCCATCATCCCACACTTGCCAGCCCATGAACTCAGCCGGAGTCACCTAGTGCAG” stands 8330 fluorescence intensity (a.u.); under “TTTTTTTGGTTTTTTTAGTTGAGATTTGGTCAGGGGCAAACGGAGTCACCTAGTGCAG”, 8590 fluorescence intensity (a.u.); under “CTCTCCATTGCAAGATCTTTTACTCGTACTTGGGCTTATGCGGAGTCACCTAGTGCAG”, 9950 fluorescence intensity (a.u.).
Under “ACTTCCTTATTTTACAATACTAAACATGTGTTTTTTTGAACGGAGTCACCTAGTGCAG” stands 8540 fluorescence intensity (a.u.).
